Results are given in words; binding and its absence hold for the method and conditions named. Binding seen in cells or lysates may run through a third protein. Some entries that bind do so weakly or less than the wild type.
Target: HPV16 E6 fused with a streptavidin-binding protein (SBP)-tag at the C-terminus (human papillomavirus type 16 (HPV16)) (UniProt P03126)
Experiment: pull-down

Protein sequences, listed by entry. Tags and fused reporters are not part of them. Lines headed by an entry give the natural chain unless they say otherwise; changes in a name come on top.
UniProt P03126: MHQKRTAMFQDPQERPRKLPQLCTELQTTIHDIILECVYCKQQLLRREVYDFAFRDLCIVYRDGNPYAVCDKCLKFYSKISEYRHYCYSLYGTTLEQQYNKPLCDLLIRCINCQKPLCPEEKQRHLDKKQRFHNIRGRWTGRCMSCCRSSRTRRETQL
UniProt O95831: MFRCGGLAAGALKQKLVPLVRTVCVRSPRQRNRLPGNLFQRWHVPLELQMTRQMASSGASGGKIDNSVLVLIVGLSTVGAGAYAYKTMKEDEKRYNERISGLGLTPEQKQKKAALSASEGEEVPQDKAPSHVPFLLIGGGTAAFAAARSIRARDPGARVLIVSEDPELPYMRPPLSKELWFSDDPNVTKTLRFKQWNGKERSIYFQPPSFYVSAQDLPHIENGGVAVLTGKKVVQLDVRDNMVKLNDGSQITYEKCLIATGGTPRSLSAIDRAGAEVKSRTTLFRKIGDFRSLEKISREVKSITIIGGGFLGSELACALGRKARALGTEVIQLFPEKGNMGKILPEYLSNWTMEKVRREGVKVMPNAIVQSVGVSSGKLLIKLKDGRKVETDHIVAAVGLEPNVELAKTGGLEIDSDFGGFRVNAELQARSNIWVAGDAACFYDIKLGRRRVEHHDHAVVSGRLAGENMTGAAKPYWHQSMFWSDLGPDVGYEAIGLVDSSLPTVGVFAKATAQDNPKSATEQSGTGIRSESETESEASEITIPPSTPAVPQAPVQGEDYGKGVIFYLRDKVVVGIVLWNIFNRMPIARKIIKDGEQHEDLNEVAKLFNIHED

Substance	binding
Apoptotic form of AIF (Δ102AIF), ubiquitin polypeptide-fused, with an HA-tag at the C-terminus (from UniProt O95831 103-613) (domain or fragment)	binds
Mature form of AIF (Δ54AIF), ubiquitin polypeptide-fused, with an HA-tag at the C-terminus (from UniProt O95831 55-613) (domain or fragment)	binds

Source: publication PMC7450093
